According to patent US11534408B2, “Microcapsules and methods of using the same” (priority 2018, dated 2022):
At least one structure is not confirmed: it was looked up by name or label, or the drawing left a doubt.

System: Pseudomonas aeruginosa strain PAO1
Assay: Diffusion of antibiotic molecules through the membrane of PAO1 nanoculture capsules
Assay type: cell-based
Conditions: 50 ug/ml antibiotic introduced 24 hours after encapsulation; capsules (H:V)=(0.6:1), 3 ppm Pt catalyst, 0% DMAA, heat treated 5 minutes at 70° C.
Method: FIGS. 9A-9C provide representative brightfield images of the presently disclosed nanoculture capsules. Pseudomonas aeruginosa PAO1 strain was used as the bacterial inoculum for the inner phase of the capsules. Antibiotics, including tobramycin and tetracycline, were introduced 24 hours after encapsulation. (9A) Untreated PAO1 nanoculture after 24 hours. (9B) PAO1 nanoculture treated with 50 ug/ml tobramycin. (9C) PAO1 nanoculture treated with 50 ug/ml tetracycline.
The presently disclosed polymer was used to investigate the diffusion of antibiotic molecules through the membrane. Pseudomonas aeruginosa strain PAO1 was used as the bacterial inoculum for the inner phase of the nanoculture capsules. Antibiotics, including tobramycin and tetracycline, to which the PAO1 were sensitive, were introduced 24 hours after encapsulation. A 24-hour incubation period allowed for the confluent growth of PAO1. […] Microcapsules used in FIGS. 9A-9C were generated by using (H:V)=(0.6:1) with 3 ppm Pt catalyst and 0% DMAA. The generated microcapsules were heat treated for 5 minutes at 70° C. immediately after encapsulation. Following heat treatment, capsules were incubated at 37° C. for 24 hours.

How did the “PAO1 cells in nanoculture capsules after antibiotic treatment” value turn out when `CN(C)[C@@H]1C(O)=C(C(N)=O)C(=O)[C@@]2(O)C(O)=C3C(=O)c4c(O)cccc4[C@@](C)(O)[C@H]3C[C@@H]12` [tetracycline] was run?
The value was “completely killed”.
